Results on 68 compounds are retold here after the supplement of paper PMC9938546.

Structures can show the parent of a compound that is named as a salt. The list shows a part of the results. Baselines shift from plate to plate; read single values as rough.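 HCT116-GFP, a KRAS-mutant, microsatellite-unstable human colorectal cancer line, constantly expresses green fluorescent protein; immune cells were from healthy donors. Cancer cell survival was tracked by live-cell imaging of green fluorescence, and activated immune cells by themselves reduced survival to roughly half.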

The subject of this test is HCT116-GFP. Briefly: HCT116-GFP viability (GFP intensity) relative to untreated HCT116-GFP monoculture control, co-culture with activated PBMCs; higher = less cancer cell killing. The settings on record: culture: co-culture with anti-CD3/IL2 activated PBMCs 1:1; 10 µM; 72 h.
Consider `c1ccc2c(c1)Nc1ccccc1S2` [Phenothiazine], for which the HCT116-GFP viability stood at 24%.
In the case of `O=c1c2ccccc2[se]n1-c1ccccc1` [Ebselen] it was 64.3%.
The compound `CC(=O)O[C@H]1C[C@@H]2CC[C@@H]3[C@H](CC[C@@]4(C)[C@H]3C[C@H]([N+]3(C)CCCCC3)[C@@H]4OC(C)=O)[C@@]2(C)C[C@@H]1[N+]1(C)CCCCC1` [Pancuronium bromide] had an HCT116-GFP viability of 29.2%.
`CCCC(C)C1(CC)C(=O)NC(=O)NC1=O` (stereo not drawn) [Pentobarbital] had an HCT116-GFP viability of 42.3%.
The compound `C=CCN1CC[C@]23c4c5ccc(O)c4O[C@H]2C(=O)CC[C@@]3(O)[C@H]1C5` [Naloxone hydrochloride] came in with an HCT116-GFP viability of 38.7%.
`C[C@]12CCC(=O)C=C1C=C[C@@H]1[C@@H]2CC[C@@]2(C)[C@H]1CC[C@@]2(O)CCC(=O)O` [Canrenoic acid potassium salt] registered an HCT116-GFP viability of 48.9%.
In the case of `C(#CCN1CCCC1)CN1CCCC1` [Tremorine dihydrochloride] it was 36.2%; in that of `CN1[C@@H]2C[C@@H](OC(=O)[C@H](CO)c3ccccc3)C[C@H]1[C@@H]1O[C@@H]12` [Scopolamine hydrochloride], 72.6%; in that of `C#C[C@]1(O)CC[C@H]2[C@@H]3CCC4=CC(=O)CCC4=C3C=C[C@@]21CC` [Gestrinone], 47.9%.
In the case of `N[C@@H]1C[C@H]1c1ccccc1` [Tranylcypromine hydrochloride] it was 47.8%; in that of `NCC(CC(=O)O)c1ccc(Cl)cc1` (racemic) [Baclofen (R,S)], 37.4%.
With `O=C1CC[C@@]2(O)[C@H]3Cc4ccc(O)c5c4[C@@]2(CCN3CC2CC2)[C@H]1O5` [Naltrexone hydrochloride dihydrate], the HCT116-GFP viability is 52.5%.
Consider `CN[C@@H]1[C@@H](O)[C@@H](O[C@@H]2[C@@H](O)[C@H](O[C@H]3O[C@H](CN)CC[C@H]3N)[C@@H](N)C[C@H]2N)OC[C@]1(C)O.CN[C@@H]1[C@@H](O)[C@@H](O[C@@H]2[C@@H](O)[C@H](O[C@H]3O[C@H]([C@@H](C)N)CC[C@H]3N)[C@@H](N)C[C@H]2N)OC[C@]1(C)O.CN[C@@H]1[C@@H](O)[C@@H](O[C@@H]2[C@@H](O)[C@H](O[C@H]3O[C@H]([C@@H](C)NC)CC[C@H]3N)[C@@H](N)C[C@H]2N)OC[C@]1(C)O` [Gentamicine sulfate], for which the HCT116-GFP viability is 52.1%.
In the case of `CC(NC(C)(C)C)C(=O)c1cccc(Cl)c1` (stereo not drawn) [Bupropion hydrochloride], the HCT116-GFP viability was 36.5%.
In the case of `CN1CCC2(C)c3cc(O)ccc3N(C)C12` (single isomer, unassigned; (-)) [(-)-Eseroline fumarate salt] it was 35.3%; in that of `CC[C@@H](CO)NC(=O)[C@@H]1C=C2c3cccc4[nH]cc(c34)C[C@H]2N(C)C1` [Methylergometrine maleate], 44.7%; in that of `Cc1cc(C(C#N)c2ccc(Cl)cc2)c(Cl)cc1NC(=O)c1cc(I)cc(I)c1O` (stereo not drawn) [Closantel], 31.1%.
In the case of `C[C@@H]1C[C@@H]([C@H](O)CC2CC(=O)NC(=O)C2)C(=O)[C@@H](C)C1` [Cycloheximide] it was 5.68%; in that of `O=c1[nH]oc2c1CCNC2` [THIP Hydrochloride], 50.1%; in that of `NCC1(CC(=O)O)CCCCC1` [Gabapentin], 61.6%.
In turn, `CC(N)C(O)c1ccccc1` (stereo not drawn) [Phenylpropanolamine hydrochloride] returned an HCT116-GFP viability of 28.7%.
In the case of `O=C(CCCN1CCC2(CC1)C(=O)NCN2c1ccccc1)c1ccc(F)cc1` [Spiperone] it was 31.2%; in that of `C=C1CC[C@@]2(O)[C@H]3Cc4ccc(O)c5c4[C@@]2(CCN3CC2CC2)[C@H]1O5` [Nalmefene hydrochloride], 29.6%.
For the compound `O=[N+]([O-])O[C@H]1CO[C@H]2[C@@H]1OC[C@H]2O[N+](=O)[O-]` [Isosorbide dinitrate], the HCT116-GFP viability was 75.8%.
For `CC(O)(CS(=O)(=O)c1ccc(F)cc1)C(=O)Nc1ccc(C#N)c(C(F)(F)F)c1` (stereo not drawn) [Bicalutamide], the HCT116-GFP viability was determined as 69.2%.
For the compound `CCOC(=O)c1cncn1[C@H](C)c1ccccc1` [Etomidate], the HCT116-GFP viability came out at 62.7%.
In turn, `CC(C)c1cccc(C(C)C)c1O` [Propofol] displayed an HCT116-GFP viability of 65.6%.
Compound `C[C@]12CC[C@H](O)C[C@H]1CC[C@@H]1[C@@H]2CC[C@]2(C)[C@@H](C3=CC(=O)OC3)CC[C@]12O` [Digitoxigenin] displayed an HCT116-GFP viability of 0.223%.
`CC(=O)O[C@H]1CC[C@@]2(C)C(=CC[C@@H]3[C@@H]2CC[C@]2(C)C(=O)CC[C@@H]32)C1` [Dehydroisoandosterone 3-acetate]: the HCT116-GFP viability came out at 72.2%.
For `O=C(NCNC(=O)NC1C(=O)NC(=O)N1CO)NC1C(=O)NC(=O)N1CO` (stereo not drawn) [Imidurea], the HCT116-GFP viability is 46.7%.
In the case of `CN1C[C@H](CNC(=O)OCc2ccccc2)C[C@@H]2c3cccc4c3c(cn4C)C[C@H]21` [Metergoline] it was 63.8%.
In the case of `Oc1ccc2c3c1O[C@H]1[C@@H](O)CC[C@@]4(O)[C@@H](C2)N(CC2CCC2)CC[C@]314` [Nalbuphine hydrochloride], the HCT116-GFP viability worked out at 44.8%.
Compound `COc1cc2c(c(OC)c1OC)-c1ccc(OC)c(=O)cc1[C@@H](NC(C)=O)CC2` [Colchicine] showed an HCT116-GFP viability of 2.08%.
In turn, `c1ccc2c(c1)OCC(C1=NCCN1)O2` (stereo not drawn) [Idazoxan hydrochloride] had an HCT116-GFP viability of 51.6%.
Turning to `CCCCCC[C@H]1C(=O)O[C@H](C)[C@H](NC(=O)c2cccc(NC=O)c2O)C(=O)O[C@@H](C)[C@@H]1OC(=O)CC(C)C` [Antimycin A], the HCT116-GFP viability amounted to 26.5%.
In the case of `CC[N+]1(C)CCCC(OC(=O)C(O)(c2ccccc2)c2ccccc2)C1` (stereo not drawn) [Pipenzolate bromide] it was 93.1%.
In the case of `C[C@]12COC(=O)C[C@@H]1CC[C@@H]1[C@@H]2CC[C@@]2(C)[C@H]1CC[C@]2(C)O` [Oxandrolone], the HCT116-GFP viability was 53.1%.
Turning to `O=P1(N(CCCl)CCCl)NCCCO1` (stereo not drawn) [Cyclophosphamide], the HCT116-GFP viability stood at 35.8%.
In turn, `CN1C(=O)CCS(=O)(=O)C1c1ccc(Cl)cc1` (stereo not drawn) [Chlormezanone] had an HCT116-GFP viability of 49.1%.
As to `CC(=O)[C@H]1CC[C@H]2[C@@H]3CC[C@H]4C[C@H](O)CC[C@]4(C)[C@H]3C(=O)C[C@]12C` [Alfaxalone], the HCT116-GFP viability was 50.8%.
In the case of `C=C1C[C@@H]2[C@H](CC[C@]3(C)C(=O)CC[C@@H]23)[C@@]2(C)C=CC(=O)C=C12` [Exemestane] it was 60.1%; in that of `C[C@]12C/C(=C/O)C(=O)C[C@@H]1CC[C@@H]1[C@@H]2CC[C@@]2(C)[C@H]1CC[C@]2(C)O` [Oxymetholone], 31.3%.
In the case of `CCCC(C)(COC(N)=O)COC(=O)NC(C)C` (stereo not drawn) [Carisoprodol] it was 49.4%; in that of `CCC1(C)CC(=O)NC(=O)C1` [Bemegride], 69.2%; in that of `OC(c1ccccc1)(c1ccccc1)C1CCNCC1` [Azacyclonol], 52.9%.
`NC(=O)OCCCc1ccccc1` [Phenprobamate] registered an HCT116-GFP viability of 42%.
In the case of `C[N+]1(C)CCCC(OC(=O)C(O)(c2ccccc2)c2ccccc2)C1` (stereo not drawn) [Mepenzolate bromide] it was 72.4%.
As to `C[C@@H]1CN([C@H]2CC[C@](C#N)(c3ccc(F)cc3)CC2)CC[C@]1(C(=O)O)c1ccccc1` [Levocabastine hydrochloride], the HCT116-GFP viability was 35.4%.
Turning to `C=CCC1(CC(C)C)C(=O)NC(=O)NC1=O` [Butalbital], the HCT116-GFP viability amounted to 53.1%.
In turn, `O=C(CCCN1CCC(n2c(=O)[nH]c3ccccc32)CC1)c1ccc(F)cc1` [Benperidol] yielded an HCT116-GFP viability of 44.1%.
In turn, `COc1ccc(OC)c(C(O)C(C)N)c1` (stereo not drawn) [Methoxamine hydrochloride] returned an HCT116-GFP viability of 52%.
In the case of `CCC(=O)O[C@H]1CC[C@H]2[C@@H]3CCC4=CC(=O)CC[C@]4(C)[C@H]3CC[C@]12C` [Testosterone propionate] it was 60%; in that of `NCCCNCCSP(=O)(O)O` [Amifostine], 27.8%; in that of `CC1OC(OC2/C=C/C=C/C=C/C=C/CC/C=C/C=C/[C@H](C)[C@@H](O)[C@@H](C)[C@H](C)OC(=O)CC(O)CC(O)CC(O)CCC(O)C(O)C[C@]3(O)CC(O)C(C(=O)O)C(C2)O3)C(O)C(N)C1O` (stereo partly drawn) [Nystatine], 42.6%.
In the case of `O=c1[nH]c2ccccc2n1C1CCN(CCCC(c2ccc(F)cc2)c2ccc(F)cc2)CC1` [Pimozide] it was 28.9%; in that of `C[C@]12CC[C@@H](O)C[C@H]1CC[C@@H]1[C@@H]2CC[C@]2(C)C(=O)CC[C@@H]12` [3-alpha-Hydroxy-5-beta-androstan-17-one], 64.4%; in that of `C#CCN(C)[C@H](C)Cc1ccccc1` [Selegiline hydrochloride], 58.4%.
In turn, `C[C@@H]1O[C@@H](O[C@@H]2C=C3CC[C@@H]4[C@H](CC[C@]5(C)[C@@H](c6ccc(=O)oc6)CC[C@]45O)[C@@]3(C)CC2)[C@H](O)[C@H](O)[C@H]1O` [Proscillaridin A] gave an HCT116-GFP viability of 0.346%.
As for `CN(C)C(=O)Oc1ccc[n+](C)c1` [Pyridostigmine iodide], the HCT116-GFP viability came out at 30.1%.
For `CNC(=O)Oc1ccc2c(c1)[C@]1(C)CCN(C)[C@@H]1N2C` [Eserine hemisulfate salt], the HCT116-GFP viability was 46.7%.
Compound `CN(C)C(=O)Oc1cccc([N+](C)(C)C)c1` [Neostigmine bromide] had an HCT116-GFP viability of 29%.
In the case of `COc1ccc(C(CN(C)C)C2(O)CCCCC2)cc1` (stereo not drawn) [Venlafaxine] it was 80.8%; in that of `CCNCC(O)c1cccc(O)c1` (stereo not drawn) [Etilefrine hydrochloride], 46%.
Turning to `CC(C)(N)Cc1ccccc1` [Phentermine hydrochloride], the HCT116-GFP viability is 41.1%.
As for `CC(C)C[C@H]1C(=O)N2CCC[C@H]2[C@]2(O)O[C@](NC(=O)[C@@H]3C=C4c5cccc6[nH]c(Br)c(c56)C[C@H]4N(C)C3)(C(C)C)C(=O)N12` [Bromocryptine mesylate], the HCT116-GFP viability came out at 23.4%.
In turn, `CN1[C@@H]2CC[C@H]1C[C@@H](OC(=O)C(CO)c1ccccc1)C2` (stereo partly drawn) [Atropine sulfate monohydrate] had an HCT116-GFP viability of 17.7%.
For `CCC1=C[C@H]2CN3CCc4c([nH]c5ccccc45)[C@](C(=O)OC)(C2)[C@H]13` [Catharanthine], the HCT116-GFP viability came out at 44.1%.
As for `CNC(C)(C)Cc1ccccc1` [Mephentermine hemisulfate], the HCT116-GFP viability came out at 75.5%.
